Molecules are shown by their SMILES. Values joined by “and” are separate entries in the source; they are usually repeats but may differ in a detail not shown here. Identical values can stand only once. Out of some 1,900 compounds screened, about 15 (0.8%) were called active.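 Rule for the calls: active = every replicate shows at least 50% inhibition; inconclusive = mean inhibition at least 50% but some replicate below; inactive = the rest.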 This is one part of the list.

The chains behind the UniProt entries cited, without tags or fusion partners. Where a name states a change or a piece, a line headed by the entry shows the natural chain unless it says otherwise.
UniProt P43351: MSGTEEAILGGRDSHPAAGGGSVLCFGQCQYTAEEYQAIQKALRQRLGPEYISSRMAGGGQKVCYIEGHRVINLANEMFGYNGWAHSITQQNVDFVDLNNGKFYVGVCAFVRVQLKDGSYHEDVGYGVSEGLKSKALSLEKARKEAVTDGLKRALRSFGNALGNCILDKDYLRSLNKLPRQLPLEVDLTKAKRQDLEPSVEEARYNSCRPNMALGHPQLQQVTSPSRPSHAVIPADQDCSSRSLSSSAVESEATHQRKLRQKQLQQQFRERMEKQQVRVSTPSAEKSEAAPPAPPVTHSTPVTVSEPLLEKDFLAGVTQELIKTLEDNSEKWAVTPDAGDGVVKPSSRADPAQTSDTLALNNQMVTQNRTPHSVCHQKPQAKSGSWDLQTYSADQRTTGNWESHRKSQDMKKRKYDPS

The target in this test is DNA repair protein RAD52 homolog (Homo sapiens) (UniProt P43351). The test can be described thus: RAD52 ssDNA annealing inhibitors, primary screen, biochemical, FRET, single point (AID 651660).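 Note: 0% = median of neutral control wells and 100% = median of positive control wells.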 The settings on record: Recombinant RAD52 ssDNA annealing, FRET fluorescence, 30 min; at 18.7 µM; hits give high values.
As usually defined, the inhibition is the drop in the measured response relative to a control, in per cent. Turning to `Cc1ccc2c(c1)C(C)(C)[C@]1(C)NC(=O)CCN21`, the inhibition is inactive: -137%.
The result for `CC(=O)OC1c2c(ccc3ccc(=O)oc23)OC(C)(C)C1OC(=O)CC(C)C` (stereo not drawn) reads inactive: 1.13%.
Under `O=C(CN1CC[n+]2c(-c3cccs3)csc21)c1ccc(Br)cc1` stands inactive: 16.6%.
Under `CCOC(=O)c1c(C)oc2c1C(=O)c1ccccc1C2=O` stands inactive: -2.13%.
As to `Cc1ccccc1NC(=O)C1c2ccccc2Oc2ccccc21`, the inhibition was inactive: -5.77%.
For `Cc1ccc(C(CC(=O)NCc2ccco2)c2ccc(OC(C)C)cc2)cc1` (stereo not drawn), the inhibition was inactive: -9.23%.
`COc1cccc(CC2CC(=O)N(c3ccc4c(C)cc(=O)oc4c3)C2=O)c1` (stereo not drawn): the inhibition was inactive: -4.9%.
Regarding `O=C1CCc2cc(OCCCCc3nnnn3C3CCCCC3)ccc2N1`, the inhibition was inactive: 9.44%.
The result for `CCS(=O)(=O)CCn1c([N+](=O)[O-])cnc1C` reads inactive: 7.76%; that for `CCCCOc1cc(C(=O)NCCN(CC)CC)c2ccccc2n1`, inactive: 8.91% and inactive: -1.38%; that for `c1cc(-c2ccncc2)ccn1`, inactive: 5.07%.
Under `C(=C\c1ccc2ccccc2n1)/c1ccccc1` stands inactive: 3.46%; under `O=C(Oc1ccc2c3c(c(=O)oc2c1)CCCC3)c1ccco1`, inactive: -7.43%; under `Cc1csc(CCc2nc(C)cs2)n1`, inactive: 4.78%.
Regarding `COc1ccc(-c2c(C)c3ccc(OCC(C)=O)cc3oc2=O)cc1`, the inhibition is inactive: -13.6%.
Under `O=C(/C=C/c1ccc2c(c1)OCO2)NCc1ccc(F)cc1` stands inactive: -7.5%.
Under `COc1ccc(-c2cc(C(=O)N3CCOCC3)c3cc(C)ccc3n2)cc1` stands inactive: -12%; under `CN1CC2CCCC3(C1)C(=O)NC1(CCCCC1)N=C23` (stereo not drawn), inactive: -2.27%; under `COc1ccc(C)cc1S(=O)(=O)Nc1ccc(F)cc1`, inactive: -3.15%.
The result for `CC(NC(=O)c1ccc(OC2CCN(Cc3ccccn3)CC2)cc1)c1ccccc1` (stereo not drawn) reads inactive: -21.4%; that for `CC(C)=CCCC(C)CN1CCC(N2CCC(C(=O)N3CCCC3)CC2)CC1` (stereo not drawn), inactive: -64.5%; that for `COC(=O)c1ccc(NC(=O)C23CCC(C)(C(=O)O2)C3(C)C)cc1` (stereo not drawn), inactive: -12%.
For the molecule `C[C@]12CC[C@@H]3c4ccc(O)cc4CC[C@H]3[C@@H]1CCC2=O`, the inhibition was inactive: 1.38%.
Under `O=C(OCCN1CCCC1)C1(c2ccccc2)CCCC1` stands inactive: -5.14%; under `CN=C1c2cc3cc(OC)ccc3n2CCN1C`, inactive: 14.8%; under `OC(C#CCN1CCCC1)(c1ccccc1)c1cccnc1` (stereo not drawn), inactive: -0.126%.
For `COC1CCCCC1Nc1ccc(C)c(C)c1` (stereo not drawn), the inhibition was inactive: -29.2%.
Consider `Cc1cccc(CN2CCN(C(c3ccccc3)c3ccc(Cl)cc3)CC2)c1` (stereo not drawn), for which the inhibition is inactive: 11.1%.

Source of the values: PubChem BioAssay AID651660 (Broad Institute, 2012).
